In patent publication US20230027929A1, “MrgprX2 Antagonists and Uses Thereof” (Dermira, Inc., priority 2019, published 2023):
The match of structure and compound is tentative.

Amino acid sequences for entries named in this document (tags omitted).
UniProt Q96LB1, whole entry: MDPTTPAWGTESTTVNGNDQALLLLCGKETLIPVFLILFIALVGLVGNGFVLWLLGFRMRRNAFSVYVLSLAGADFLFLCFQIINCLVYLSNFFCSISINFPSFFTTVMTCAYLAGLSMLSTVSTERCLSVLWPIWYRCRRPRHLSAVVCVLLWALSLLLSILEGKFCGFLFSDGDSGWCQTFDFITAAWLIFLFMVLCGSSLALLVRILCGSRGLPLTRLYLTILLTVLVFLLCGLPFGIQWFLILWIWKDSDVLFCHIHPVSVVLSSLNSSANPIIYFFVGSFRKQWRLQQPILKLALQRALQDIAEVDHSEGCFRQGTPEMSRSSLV

Each compound was assayed against hMrgpMRGPRX2 (Homo sapiens, UniProt Q96LB1) (assay: FLIPR intracellular calcium mobilization, antagonist activity in recombinant hMrgpMRGPRX2 expressing cells).
Text: Potent and selective hMrgpMRGPRX2 compounds have been generated from compounds identified during a high throughput screening (HTS) campaign and followed up with cycles of structure activity based medicinal chemistry efforts. These compounds were characterized in recombinant hMrgpMRGPRX2 expressing cells for their antagonist activity and the potency was confirmed in the human mast cell line LAD-2, where the target is endogenously expressed. The assays used to determine potencies are functional read-out looking at intracellular calcium mobilization using the FLIPR™ technology. In these FLIPR assays, we test the identified compounds using recombinant cellular systems expressing mouse MrgprB2, mouse MrgprA1, gerbil MrgpMRGPRX2 orthologue, Chinese hamster MrgpMRGPRX2 orthologue and cynomolgus monkey MrgpMRGPRX2 orthologue, respectively for orthologue activity.

SMILES | Human MrgprX2 Antagonist pIC50
O=C(Nc1ccc(Oc2ccc(F)c(F)c2)cn1)C1CC1F (single isomer, unassigned) [E067] | 6.1
O=C(Nc1ccc(Oc2ccc(F)c(F)c2)cn1)C1CC1F (single isomer, unassigned) [E064] | 6.64
CC1(C)C(C(=O)Nc2ccc(-n3cc(O)cn3)cn2)C1(C)C | 6.04
CCN(C[C@@H](O)C(F)(F)F)C(=O)Nc1cnc(Cc2cc(F)cc(F)c2)cn1 | 6.17
